Test system: Candida albicans
Assay: Antifungal activity against Candida albicans after 16 to 20 hrs by broth micro-dilution method
Type: functional, organism-based

NYSTATIN
MIC: 0.97 µg/mL
